PubChem BioAssay AID504834 (National Center for Advancing Translational Sciences (NCATS), 2011)
Hit rate of the full screen: of about 320,000 compounds, about 22,000 (6.9%) were called active. Inconclusive results, whose numbers are uncertain, are shown with a selection of clear calls. Calls come from the whole dose curve; as a rule, active = well fitted inhibition curve with a large enough effect; inconclusive = small, poorly fitted or top-dose-only effect, or another doubt; inactive = no such curve, though single readings can be large or run the other way. Potencies of inconclusive entries are doubtful fits and often do not repeat.

Test: Primary qHTS for delayed death inhibitors of the malarial parasite plastid, 96 hour incubation
Conditions: P. falciparum luciferase reporter growth; series mostly up to 28.7 µM
In short: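 Two-generation exposure (96 h) targets delayed-death phenotype. Reporter parasites carrying integrated firefly luciferase, in red cells at 2% hematocrit and 0.05% parasitemia final, kept at 37 C, 5% CO2; luminescence loss indicates inhibition.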
Potency is the fitted concentration of half-maximal effect.

Row | Structure (SMILES) | Potency
1 | CCOCCn1c(N2CCCN(C)CC2)nc2ccccc21 | inconclusive: 6.75 µM [inhibitor, partial curve]
2 | COCCCNc1nc2c(-c3cccc(C(F)(F)F)c3)nnn2c2ccccc12 | inconclusive: 10.4 µM [inhibitor, partial curve, poor fit]
3 | CCOC(=O)CNC(=S)N(Cc1ccccc1)Cc1ccccc1F | inconclusive: 18.5 µM [inhibitor, single point]
4 | Cc1ccnc(N/C=C(/NC(=O)c2ccccc2)C(=O)N/N=C\c2ccc(Cl)cc2)n1 | inactive
5 | COc1cc(/C=N/NP(=S)(c2ccccc2)c2ccccc2)ccc1O | inconclusive: 18.5 µM [inhibitor, single point]
6 | Cc1ccc(-c2nc(CSCC(=O)NCC3CCCO3)c(C)o2)cc1 (centres undefined) | inconclusive: 11.7 µM [inhibitor, single point]
7 | C=CCN(C(=O)CSc1nnnn1C)c1nc(-c2ccccc2)cs1 | inactive
8 | COc1ccc(CN(C)C(=O)Cn2ccc(NC(=O)OCc3ccccc3)nc2=O)cc1OC | inactive
9 | COc1ccccc1N(CC(=O)NC1CCCCC1)C(=O)c1cnn(C(C)C)c1 | inconclusive: 18.5 µM [inhibitor, single point]
10 | O=C(Cn1ccc2ccccc2c1=O)NCC(=O)N1CCN(c2ccc(F)cc2)CC1 | inconclusive: 0.185 µM [inhibitor, full curve, poor fit]
11 | N#Cc1c(C(F)(F)F)cc(-c2cccs2)nc1N1CCCCC1 | active: 10.4 µM
12 | Cc1ccc(CNS(=O)(=O)c2ccc3c(c2)N(C)CCO3)cc1 | inactive
13 | O=C(CSc1nnc(-c2ccc(Cl)cc2Cl)n1C1CCCCC1)N1CCCC1 | inconclusive: 10.4 µM [inhibitor, single point]
14 | CSc1ccc(-c2c(C#N)c(N)nc3c2c(C)nn3-c2ccccc2)cc1 | active: 2.08 µM
15 | COC(=O)Cn1c(=O)oc2ccc(C)cc21 | inactive
16 | c1ccc2c(c1)CCN(c1ncnc3nc[nH]c13)C2 | inconclusive: 18.5 µM [inhibitor, single point]
17 | Cc1cccc(-n2c(C)cc(/C=C3\NC(=O)NC3=O)c2C)c1 | inactive
18 | COc1ccc(CCC(=O)Nc2nnc(C(C)(C)C)s2)cc1 | inconclusive: 18.5 µM [inhibitor, single point]
19 | O=C1N=c2ccc(Br)cc2=C1c1sc(=S)n(NS(=O)(=O)c2ccccc2)c1O | inactive
20 | CCN(CC)CCSc1nc(O)c(Cc2ccccc2)c(=O)n1-c1ccccc1 | inactive
21 | c1ccc(CN2CCN(Cc3cn4cccnc4n3)CC2)cc1 | inconclusive: 0.0041 µM [inhibitor, full curve, poor fit]
22 | COc1ccc(Cc2nnc(NC(=O)Nc3ccccc3)s2)cc1OC | inconclusive: 5.86 µM [inhibitor, partial curve, poor fit]
23 | CCOc1ccc(C(C(=O)NCC2CCCO2)N(C(=O)c2snc(C(N)=O)c2N)c2ccc(F)cc2)cc1 (centres undefined) | inactive
24 | Cc1nnc(N2C(=O)C(=O)/C(=C(\O)c3ccc4c(c3)CC(C)O4)C2c2ccccc2)s1 (centres undefined) | inconclusive: 18.5 µM [inhibitor, single point]
25 | CCc1ccc(OCC(=O)N/N=C(\C)c2ccc(-n3ccnc3)cc2)cc1 | inconclusive: 18.5 µM [inhibitor, single point]

Two records picked at random from the list so far:
Row | Structure (SMILES) | Potency
12 | Cc1ccc(CNS(=O)(=O)c2ccc3c(c2)N(C)CCO3)cc1 | inactive
10 | O=C(Cn1ccc2ccccc2c1=O)NCC(=O)N1CCN(c2ccc(F)cc2)CC1 | inconclusive: 0.185 µM [inhibitor, full curve, poor fit]

Four compounds out of the list, ordered by SMILES length, descending.
Row | Structure (SMILES) | Potency
24 | Cc1nnc(N2C(=O)C(=O)/C(=C(\O)c3ccc4c(c3)CC(C)O4)C2c2ccccc2)s1 (centres undefined) | inconclusive: 18.5 µM [inhibitor, single point]
2 | COCCCNc1nc2c(-c3cccc(C(F)(F)F)c3)nnn2c2ccccc12 | inconclusive: 10.4 µM [inhibitor, partial curve, poor fit]
20 | CCN(CC)CCSc1nc(O)c(Cc2ccccc2)c(=O)n1-c1ccccc1 | inactive
22 | COc1ccc(Cc2nnc(NC(=O)Nc3ccccc3)s2)cc1OC | inconclusive: 5.86 µM [inhibitor, partial curve, poor fit]

Next records follow:

Row | Structure (SMILES) | Potency
26 | CCC(CO)Oc1cc(NC(=O)c2ccc(F)cc2)c2ncn(C(C)C)c2c1 (centres undefined) | inconclusive: 14.7 µM [inhibitor, single point]
27 | Nc1ncc(S(=O)(=O)c2ccc(Cl)cc2)c(N)n1 | inactive
28 | Cc1ccc(C(=O)Nc2cccc(C(=O)NC3CCCC3)c2)cc1 | inactive
29 | CN(Cc1ccc(F)cc1)S(=O)(=O)c1nnc(NC(=O)c2ccccc2)s1 | inconclusive: 2.62 µM [inhibitor, single point]
30 | COCC(C)n1c(C)cc(C(=O)COC(=O)c2ccc3c(c2)NC(=O)CS3)c1C (centres undefined) | active: 7.38 µM
31 | O=C(COc1ccccc1)N/N=C/c1cc2c(cc1[N+](=O)[O-])OCO2 | inconclusive: 18.5 µM [inhibitor, single point]
32 | Cc1cc(=O)oc2cc(OCC(=O)N3CCc4ccccc4C3)ccc12 | inconclusive: 10.4 µM [inhibitor, single point]
33 | COc1cc(C(=O)NC2CCCC2)c(Br)c(OC)c1OC | inactive
34 | CC1(C)CC(=O)C(C2C3=C(CC(C)(C)CC3=O)Oc3ccccc32)C(=O)C1 (centres undefined) | inactive
35 | CC(=O)Nc1ccc(S(=O)(=O)NC2=C(N3CCN(Cc4ccccc4)CC3)C(=O)c3ccccc3C2=O)cc1 | active: 1.17 µM
36 | COc1ccc(-c2c(C)nc(N)nc2-c2ccc(OCc3ccc(C)cc3)cc2O)cc1OC | inconclusive: 13.1 µM [inhibitor, single point]
37 | O=C(CCl)Nc1cc(S(=O)(=O)N2CCCCCC2)ccc1Cl | inconclusive: 7.38 µM [inhibitor, single point]
38 | CCCCNC(=O)Cn1nc(Cc2ccncc2)c2ccccc2c1=O | active: 9.28 µM
39 | O=C1C2CC=CCC2C(=O)N1Cc1nnc(-c2ccc(Cl)cc2)o1 (centres undefined) | inactive
40 | Clc1ccc(-c2csc(N3CCN(c4ccccc4)CC3)n2)cc1 | inactive
41 | CC(C)(C)OC(=O)N1CCC[C@H]1c1nnc(SCc2ccccc2F)o1 | inconclusive: 16.5 µM [inhibitor, single point]
42 | CCN(CC)S(=O)(=O)c1cccc(C(=O)OCC(=O)c2ccc3c(c2)NC(=O)CO3)c1 | inconclusive: 18.5 µM [inhibitor, single point]
43 | O=C(COc1ccccc1Br)NCc1ccccn1 | inconclusive: 11.7 µM [inhibitor, single point]
44 | CCOC(=O)N1CCN(C(=O)c2ccccc2NC(=O)c2ccc(C(C)(C)C)cc2)CC1 | inconclusive: 18.5 µM [inhibitor, single point]
45 | CCOc1ccc(C(=O)Nc2cc(C)on2)cc1 | inactive
46 | CN(C)CC1CCCCC1OC(=O)c1ccc(Br)cc1 (centres undefined) | inactive
47 | C[C@]12Cc3nonc3C[C@@H]1CC[C@@H]1[C@@H]2CC[C@@]2(C)[C@H]1CC[C@]2(C)O | inconclusive: 3.01 µM [inhibitor, partial curve, poor fit]
48 | CC(C)N(C(=O)CSc1nnc(-c2ccc3c(c2)OCO3)n1C)C(C)C | inconclusive: 2.08 µM [inhibitor, partial curve, poor fit]
49 | COC(=O)C1=C(c2ccc(F)cc2OCc2ccccc2)C[C@@H]2CC[C@H]1N2C(=O)NCc1ccco1 | inconclusive: 16.5 µM [inhibitor, single point]
50 | COc1ccc2c(-c3ccccc3)cc(=S)[nH]c2c1 | inconclusive: 18.5 µM [inhibitor, single point]

Row | Structure (SMILES) | Potency
51 | COc1ccc(/C(C)=N/NC(=O)c2ccncc2)cc1 | inactive
52 | O=C(Nc1cccc(Cl)c1)Nc1ccc2nccnc2c1 | inconclusive: 14.7 µM [inhibitor, single point]
53 | NS(=O)(=O)c1ccc(CCNC(=O)CNC(=O)c2ccc(Br)o2)cc1 | inactive
54 | COc1ccc(-c2c(NC(=O)c3ccco3)oc3ccc(Cl)cc3c2=O)cc1 | inactive
55 | COc1ccc(Cl)cc1S(=O)(=O)N1CCC(C(=O)NC2CC2)CC1 | active: 8.28 µM
56 | CC(C)c1cccc(C(C)C)c1NC(=O)CN(C)C1CCS(=O)(=O)C1 (centres undefined) | inactive
57 | CC1CCCCC1NC(=O)COC(=O)c1ccc2c(c1)OCCO2 (centres undefined) | inactive
58 | CCOc1nc(NCCO)nc(Nc2ccc([N+](=O)[O-])cc2)n1 | inactive
59 | Cc1cccc(OCC(=O)OC2CCN(C)CC2)c1 | inconclusive: 18.5 µM [inhibitor, single point]
60 | CCOC(=O)N1CCN(C(=O)c2cc3c(s2)-c2ccc(Cl)cc2S(=O)(=O)C3)CC1 | inactive
61 | CCn1c2ccccc2c2cc(NC(=O)C/C(C)=N/NC(=O)c3ccccc3N)ccc21 | inconclusive: 10.4 µM [inhibitor, single point]
62 | C=C(C)COc1ccc(-c2n[nH]c(C)c2-c2ccccc2)c(O)c1 | inconclusive: 18.5 µM [inhibitor, single point]
63 | COc1ccc(C(CC(=O)N2CCC3(CC2)OCCO3)NS(=O)(=O)c2ccc(OC)cc2)cc1 (centres undefined) | inconclusive: 20.8 µM [inhibitor, partial curve, poor fit]
64 | N#CCCN(C(=O)CN1C(=O)NC2(CCCC2)C1=O)c1ccccc1F | inconclusive: 0.465 µM [inhibitor, full curve, poor fit]
65 | COCCC(=O)Nc1ccc2c(c1)CN(C(=O)CSC)CC2 | inactive
66 | Cc1ccc(-c2ccccc2NC(=O)CCl)o1 | inconclusive: 10.4 µM [inhibitor, single point]
67 | Cc1ccc2cccc(OC(=O)/C=C\c3ccccc3)c2n1 | inconclusive: 4.65 µM [inhibitor, partial curve, poor fit]
68 | N#CCCN1CCN(C(=S)c2ccc(-c3ccc(Cl)cc3)o2)CC1 | inconclusive: 0.0037 µM [inhibitor, full curve, poor fit]
69 | O=C(Nc1ccccc1)c1ccc(NCc2cccnc2)c(S(=O)(=O)N2CCOCC2)c1 | inconclusive: 10.4 µM [inhibitor, single point]
70 | CS/C(N)=N/N=C/c1ccc([N+](=O)[O-])cc1 | inactive
71 | CCOC(=O)C1=C(C)NC(=O)N(C(C)=O)C1c1ccc(Cl)cc1 (centres undefined) | active: 4.15 µM
72 | S=C(c1ccc(Br)cc1)N1CCCC1 | inactive
73 | Cc1ccc(C)c(NC(=O)c2cnn(-c3ccccc3)c2C)c1 | inconclusive: 18.5 µM [inhibitor, single point]
74 | CC1(C)COC2(OC1)C(=O)N(CN1CCOCC1)c1ccccc12 | inconclusive: 10.4 µM [inhibitor, partial curve, poor fit]
